Test results from patent US20220348923.

Target: Human serum albumin (HSA) (Homo sapiens) (UniProt P02768)
Assay: ELONA
Conditions: 2'-F pyrimidines; no binding detected at 10-1000 nM, 25 nM HSA coating; purified native protein; label: 3'-biotin via C6-amino linker (ELONA)

Sequence	Kd [nM]
UCGAAUGAACCAAGGUUCCUCGGC [SAM-2.T1]	> 1000
UUCGUGCCGCUGAGUGCGUACGGGC [SAM-1.T1]	> 1000
